Results deposited as PubChem BioAssay AID504774 (Drosophila RNAi Screening Center, 2011)

Purpose: 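Knock-downs that shift viability of MMS-exposed cells relative to untreated ones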 (primary screen)
Cell system: Drosophila Kc167 cells
Knock-down reagent: long dsRNA against Drosophila genes, about 0.25 µg dsRNA per well
Timing: about 6 days: 3 days knock-down, then 3 days with or without MMS
Conditions: methyl methanesulphonate 0.004% (w/v) for 3 days after knock-down
Read-out: 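Viability in wells given MMS, read as ATP luminescence, normalised by quantiles plate by plate and averaged across replicates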
Direction: mean viability with MMS and viability with MMS: higher = more surviving cells after MMS
The screen tested about 23,000 reagents; below is a random part of those with a known target gene and a result. 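Values are quantile-normalised luminescence on an arbitrary scale; higher means more cells surviving MMS.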 Further read-outs or replicates are left out here.

CG30355 [DRSC21958] — mean viability with MMS: 3.62e6; viability with MMS, replicate 1: 4.05e6
Grx1t [DRSC04530] — mean viability with MMS: 3.46e6; viability with MMS, replicate 1: 3.95e6
Rack1 [DRSC03405] — mean viability with MMS: 3.46e6; viability with MMS, replicate 1: 3.88e6
SsRbeta [DRSC11290] — mean viability with MMS: 3.49e6; viability with MMS, replicate 1: 3.93e6
CG12863 [DRSC06203] — mean viability with MMS: 3.50e6; viability with MMS, replicate 1: 4.04e6
Aef1 [DRSC11605] — mean viability with MMS: 3.66e6; viability with MMS, replicate 1: 4.12e6
ttm2 [DRSC08268] — mean viability with MMS: 3.50e6; viability with MMS, replicate 1: 4.01e6
sNPF-R [DRSC10836] — mean viability with MMS: 3.46e6; viability with MMS, replicate 1: 3.90e6
vas (retired record) [DRSC22007] — mean viability with MMS: 3.67e6; viability with MMS, replicate 1: 4.15e6
CG3164 [DRSC00572] — mean viability with MMS: 3.50e6; viability with MMS, replicate 1: 3.99e6
Ddr [DRSC00922] — mean viability with MMS: 3.74e6; viability with MMS, replicate 1: 4.34e6
Ddr [DRSC00923] — mean viability with MMS: 3.44e6; viability with MMS, replicate 1: 3.93e6
Ddr [DRSC02150] — mean viability with MMS: 3.45e6; viability with MMS, replicate 1: 3.87e6
Ddr [DRSC03229] — mean viability with MMS: 3.46e6; viability with MMS, replicate 1: 3.74e6
Ddr [DRSC03230] — mean viability with MMS: 3.61e6; viability with MMS, replicate 1: 4.03e6
Ddr [DRSC22818] — mean viability with MMS: 3.75e6; viability with MMS, replicate 1: 4.52e6
Alh [DRSC12447] — mean viability with MMS: 2.98e6; viability with MMS, replicate 1: 3.62e6
Alh [DRSC12487] — mean viability with MMS: 3.36e6; viability with MMS, replicate 1: 3.84e6
Alh [DRSC12488] — mean viability with MMS: 3.40e6; viability with MMS, replicate 1: 3.92e6
CG3184 [DRSC18289] — mean viability with MMS: 3.55e6; viability with MMS, replicate 1: 4.23e6
Spt7 [DRSC19997] — mean viability with MMS: 3.59e6; viability with MMS, replicate 1: 4.17e6
eIF1A [DRSC16937] — mean viability with MMS: 3.26e6; viability with MMS, replicate 1: 3.70e6
CG6337 [DRSC06977] — mean viability with MMS: 3.82e6; viability with MMS, replicate 1: 4.39e6
CG6337 [DRSC21870] — mean viability with MMS: 3.38e6; viability with MMS, replicate 1: 3.94e6
GlyRS [DRSC10711] — mean viability with MMS: 3.50e6; viability with MMS, replicate 1: 4.01e6
CG32320 [DRSC21514] — mean viability with MMS: 3.75e6; viability with MMS, replicate 1: 4.27e6
CG12682 [DRSC17873] — mean viability with MMS: 3.55e6; viability with MMS, replicate 1: 4.09e6
CG7741 [DRSC07035] — mean viability with MMS: 3.41e6; viability with MMS, replicate 1: 4.02e6
Cpr67Fb [DRSC10314] — mean viability with MMS: 3.70e6; viability with MMS, replicate 1: 4.08e6
CG14400 [DRSC02384] — mean viability with MMS: 3.53e6; viability with MMS, replicate 1: 4.06e6
Hsp67Ba [DRSC11191] — mean viability with MMS: 3.38e6; viability with MMS, replicate 1: 3.78e6
ND-B14.5A [DRSC18500] — mean viability with MMS: 3.54e6; viability with MMS, replicate 1: 3.99e6
CG17508 [DRSC07771] — mean viability with MMS: 3.70e6; viability with MMS, replicate 1: 4.20e6
CG14285 [DRSC14766] — mean viability with MMS: 3.63e6; viability with MMS, replicate 1: 4.03e6
Ir11a [DRSC19699] — mean viability with MMS: 3.46e6; viability with MMS, replicate 1: 3.92e6
CG14230 [DRSC19586] — mean viability with MMS: 3.43e6; viability with MMS, replicate 1: 3.94e6
esn [DRSC05039] — mean viability with MMS: 3.48e6; viability with MMS, replicate 1: 3.92e6
esn [DRSC07612] — mean viability with MMS: 3.55e6; viability with MMS, replicate 1: 4.03e6
pwn [DRSC06035] — mean viability with MMS: 3.55e6; viability with MMS, replicate 1: 4.58e6
sqz [DRSC16980] — mean viability with MMS: 3.77e6; viability with MMS, replicate 1: 4.16e6
Wdr82 [DRSC02595] — mean viability with MMS: 3.62e6; viability with MMS, replicate 1: 4.39e6
Wdr82 [DRSC21723] — mean viability with MMS: 3.21e6; viability with MMS, replicate 1: 3.75e6
CG14507 [DRSC14859] — mean viability with MMS: 3.46e6; viability with MMS, replicate 1: 3.90e6
sit [DRSC15760] — mean viability with MMS: 3.42e6; viability with MMS, replicate 1: 3.87e6
ana2 [DRSC05952] — mean viability with MMS: 3.55e6; viability with MMS, replicate 1: 4.03e6
